# Laboratory results reported in PubChem BioAssay AID504444 (National Center for Advancing Translational Sciences (NCATS), 2011).
# In all, about 360,000 compounds went through this assay and about 7,500 (2.1%) were called active. The shares of active, inactive and inconclusive entries below differ from those in the screen. Calls come from the whole dose curve; as a rule, active = well fitted inhibition curve with a large enough effect; inconclusive = small, poorly fitted or top-dose-only effect, or effect the other way; inactive = flat fitted curve, though single readings scatter. Potencies beside an inconclusive call are fits to weak or partial responses and may not hold up.
# Experiment: Nrf2 qHTS screen for inhibitors; note: nearly all actives have a fitted effect of over 60% in size
# Conditions: A549 ARE-Fluc reporter, luciferase luminescence, 18-24 h; series mostly up to 46 µM
# Outline: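 Nrf2 function is reported as luminescence of an ARE-controlled luciferase in A549 cells. Compounds were tested at several concentrations, and a CellTiter-Fluor read on the same wells flagged cytotoxicity.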
# Potency is the fitted concentration of half-maximal effect.
row,Structure (SMILES),Potency
1,O=C(CSc1nc2c(cnn2-c2ccc(F)cc2)c(=O)[nH]1)N1CCCCCC1,"inconclusive: 32.6 µM [falling, single point]"
2,Cn1c(NC(=O)/C=C/c2c(F)cccc2Cl)cc(=O)n(C)c1=O,inactive
3,Cc1ccc(S(=O)(=O)N(C)C)cc1NS(=O)(=O)c1ccc(Cl)s1,"inconclusive: 29.1 µM [falling, single point]"
4,N#C/C(=C1/C(=O)Nc2ccc(Br)cc21)c1ccccn1,"inconclusive: 23.1 µM [falling, single point]"
5,CC1CN(S(=O)(=O)c2ccc(C(=O)N(CCCN(C)C)c3nc4cc5c(cc4s3)OCCO5)cc2)CC(C)O1 (configuration not stated),"inconclusive: 20.6 µM [activator, single point]"
6,CCOC(=O)C1CCN(C(=O)Cn2ncc3c4ccccc4n(Cc4ccccc4F)c3c2=O)CC1,inactive
7,COc1ccc(C(=O)N2CCCC2(C#N)c2ccccc2)cc1[N+](=O)[O-] (configuration not stated),"inconclusive: 18.4 µM [falling, partial curve, poor fit]"
8,O=C(NC1CCCCC1)c1ccc(CS(=O)(=O)c2ccc(Cl)cc2)o1,"inconclusive: 7.31 µM [falling, partial curve, poor fit]"
9,Cc1ccccc1CN1C(=O)CS/C1=N/N=C/c1ccco1,"inconclusive: 29.1 µM [falling, single point]"
10,COc1ccc(S(=O)(=O)N2CCC(C(=O)N[C@H](C(=O)NCc3ccco3)C(C)C)CC2)cc1,"inconclusive: 8.2 µM [activator, partial curve, poor fit]"
11,Cc1cc(F)ccc1S(=O)(=O)N1CCCOC1CNC(=O)C(=O)NCc1ccccn1 (configuration not stated),inactive
12,Cn1ncc2c(c(SCc3ccc(Cl)cc3Cl)nn2C)c1=O,"inconclusive: 23.1 µM [falling, single point]"
13,C=CCn1c(=O)c2ccccc2n2c(SCC(=O)Nc3sc(C)c(CC)c3C(=O)OCC)nnc12,"inconclusive: 20.6 µM [falling, single point]"
14,Cc1ccc(COC(=O)c2nn(C)c(=O)c3ccccc23)cc1,active: 23.1 µM
15,Nc1ccc2c(c1)Cc1cc(N)c(Br)cc1-2,"inconclusive: 16.4 µM [activator, partial curve]"
16,c1ccc(CCn2nnc3ccccc32)cc1,"inconclusive: 25.9 µM [activator, single point]"
17,Cc1ccc(N2CCN(c3c(CN4CCCC4)c(=O)oc4ccccc34)CC2)c(C)c1,inactive
18,O=C(NN=Cc1cc([N+](=O)[O-])ccc1O)c1cccc2ccccc12,"inconclusive: 32.6 µM [falling, single point]"
19,O=C1C2=C(CCCC2)C(=O)N1CNc1ccccc1,"inconclusive: 18.4 µM [falling, single point]"
20,Cc1ccc(S(=O)(=O)NN=C2CC3CCC2(C)C3(C)C)cc1 (configuration not stated),"inconclusive: 20.6 µM [falling, partial curve]"
21,CNC(=S)N(Cc1cccs1)Cc1cc2cc(OC)c(OC)cc2[nH]c1=O,inactive

row,Structure (SMILES),Potency
1,COCCCNC(=O)c1c(NC(=O)c2cc(=O)c3ccccc3o2)sc2c1CCCC2,"inconclusive: 9.2 µM [activator, partial curve, poor fit]"
2,O=C1N=C(N2CCCCC2)S/C1=C/C1=Cc2ccccc2OC1,"inconclusive: 23.1 µM [activator, single point]"
3,Cc1ccc2nc(-c3ccc(Cl)c(NC(=O)c4cccc([N+](=O)[O-])c4C)c3)oc2c1,"inconclusive: 14.6 µM [activator, partial curve, poor fit]"
4,COc1cc(C)ccc1OCCCOc1ccccc1Br,"inconclusive: 7.31 µM [activator, partial curve]"
5,COc1cc(NC(=O)Cn2ncc3c2-c2ccccc2OC3)cc(OC)c1OC,"inconclusive: 29.1 µM [falling, single point]"
6,COc1ccc(-c2ccc([C@H]3[C@H]4C=CC[C@@H](C)[C@@H]4C(=O)N3Cc3ccccc3)c(F)c2)cc1OC,"inconclusive: 29.1 µM [falling, single point]"
7,Cc1ccc(C)c(S(=O)(=O)ON2C(=O)c3ccccc3C2=O)c1,"inconclusive: 29.1 µM [activator, single point]"
8,COc1ccc(N2CCN(S(=O)(=O)CCNC(=O)COc3ccccc3)CC2)cc1,inactive
9,CC(C)(C)C(=O)N(Cc1ccc(Cl)cc1)c1cnccn1,active: 18.4 µM
10,COC(=O)c1ccccc1NC(=O)COc1ccccc1[N+](=O)[O-],"inconclusive: 8.2 µM [activator, partial curve]"
11,O=c1c2cc(Br)ccc2nc(-c2cccc(C(F)(F)F)c2)n1O,"inconclusive: 29.1 µM [falling, single point]"
12,Cn1c(SCc2ccccc2)nnc1-c1ccc2c(c1)OCO2,"inconclusive: 8.2 µM [activator, partial curve]"
13,COc1cc(NC(=O)c2cccc(Cl)c2)ccc1NC(=O)c1cccs1,"inconclusive: 16.4 µM [falling, partial curve]"
14,Cc1ccc2sc(N(CCN(C)C)C(=O)c3ccc4ccccc4c3)nc2c1C,"inconclusive: 1.84 µM [falling, full curve]"
15,O=C(O)c1cnc(-c2ccccc2)nc1Sc1ccc(Cl)cc1,inactive
16,Cc1ccc(S(=O)(=O)N(C)CC(=O)Nc2ncccc2C)cc1,inactive
17,CCOCCCN(C(=O)Cn1nnc(-c2ccc(OC)c(OC)c2)n1)C(CC)C(=O)NC1CCCC1 (configuration not stated),"inconclusive: 16.4 µM [falling, partial curve, poor fit]"
18,C/C(=N\Nc1ccc(C)c(Cl)c1)c1cccnc1,"inconclusive: 11.6 µM [activator, partial curve, poor fit]"
19,Cc1c(Cl)cccc1NC(=S)NNc1ncc(C(F)(F)F)cc1Cl,"inconclusive: 32.6 µM [falling, partial curve, poor fit]"
20,O=c1cc(C(F)(F)F)[nH]c2c(C(F)(F)F)cccc12,active: 18.4 µM
21,COc1cc(NC(=O)Nc2nnc(N3CCCCCC3)s2)cc(OC)c1,"inconclusive: 11.6 µM [activator, partial curve, poor fit]"

# Molecules from the list above that contain a cyano group, in the order listed:
row,Structure (SMILES),Potency
4,N#C/C(=C1/C(=O)Nc2ccc(Br)cc21)c1ccccn1,"inconclusive: 23.1 µM [falling, single point]"
7,COc1ccc(C(=O)N2CCCC2(C#N)c2ccccc2)cc1[N+](=O)[O-] (configuration not stated),"inconclusive: 18.4 µM [falling, partial curve, poor fit]"
